Experiment [1] addresses BZR1-3xFLAG (Arabidopsis thaliana) (UniProt Q8S307). The experiment can be described thus: co-IP.
Experiment [2] addresses BZR1-HA (Arabidopsis thaliana) (UniProt Q8S307). As to the kind of experiment: co-IP.
The target in experiment [3] is N-terminal YFP-fused BZR1 (Arabidopsis thaliana) (UniProt Q8S307). The experiment can be described thus: split reporter.
Experiment [4] has as its target N-terminal domain of BZR1 (amino acids 1-109), yeast two-hybrid fusion (Arabidopsis thaliana) (UniProt Q8S307). As to the kind of experiment: two-hybrid.

Chains of the proteins cited; added tags and fusions are not shown. Lines headed by an entry give the natural chain unless they say otherwise; changes in a name come on top. Residues count along the entry.
UniProt Q8S307: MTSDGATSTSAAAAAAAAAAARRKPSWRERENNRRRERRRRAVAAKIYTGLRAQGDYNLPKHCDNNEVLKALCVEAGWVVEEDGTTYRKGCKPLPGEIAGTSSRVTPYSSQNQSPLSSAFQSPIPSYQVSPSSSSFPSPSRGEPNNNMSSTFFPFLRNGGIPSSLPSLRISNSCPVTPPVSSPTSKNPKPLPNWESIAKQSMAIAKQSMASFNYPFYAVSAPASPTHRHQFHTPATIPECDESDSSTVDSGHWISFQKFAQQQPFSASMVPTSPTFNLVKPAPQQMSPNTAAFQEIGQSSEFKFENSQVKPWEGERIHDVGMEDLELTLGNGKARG
N-terminal domain of BZR1 (amino acids 1-109), yeast two-hybrid fusion: residues 1-109 of Q8S307
UniProt Q6EVK6: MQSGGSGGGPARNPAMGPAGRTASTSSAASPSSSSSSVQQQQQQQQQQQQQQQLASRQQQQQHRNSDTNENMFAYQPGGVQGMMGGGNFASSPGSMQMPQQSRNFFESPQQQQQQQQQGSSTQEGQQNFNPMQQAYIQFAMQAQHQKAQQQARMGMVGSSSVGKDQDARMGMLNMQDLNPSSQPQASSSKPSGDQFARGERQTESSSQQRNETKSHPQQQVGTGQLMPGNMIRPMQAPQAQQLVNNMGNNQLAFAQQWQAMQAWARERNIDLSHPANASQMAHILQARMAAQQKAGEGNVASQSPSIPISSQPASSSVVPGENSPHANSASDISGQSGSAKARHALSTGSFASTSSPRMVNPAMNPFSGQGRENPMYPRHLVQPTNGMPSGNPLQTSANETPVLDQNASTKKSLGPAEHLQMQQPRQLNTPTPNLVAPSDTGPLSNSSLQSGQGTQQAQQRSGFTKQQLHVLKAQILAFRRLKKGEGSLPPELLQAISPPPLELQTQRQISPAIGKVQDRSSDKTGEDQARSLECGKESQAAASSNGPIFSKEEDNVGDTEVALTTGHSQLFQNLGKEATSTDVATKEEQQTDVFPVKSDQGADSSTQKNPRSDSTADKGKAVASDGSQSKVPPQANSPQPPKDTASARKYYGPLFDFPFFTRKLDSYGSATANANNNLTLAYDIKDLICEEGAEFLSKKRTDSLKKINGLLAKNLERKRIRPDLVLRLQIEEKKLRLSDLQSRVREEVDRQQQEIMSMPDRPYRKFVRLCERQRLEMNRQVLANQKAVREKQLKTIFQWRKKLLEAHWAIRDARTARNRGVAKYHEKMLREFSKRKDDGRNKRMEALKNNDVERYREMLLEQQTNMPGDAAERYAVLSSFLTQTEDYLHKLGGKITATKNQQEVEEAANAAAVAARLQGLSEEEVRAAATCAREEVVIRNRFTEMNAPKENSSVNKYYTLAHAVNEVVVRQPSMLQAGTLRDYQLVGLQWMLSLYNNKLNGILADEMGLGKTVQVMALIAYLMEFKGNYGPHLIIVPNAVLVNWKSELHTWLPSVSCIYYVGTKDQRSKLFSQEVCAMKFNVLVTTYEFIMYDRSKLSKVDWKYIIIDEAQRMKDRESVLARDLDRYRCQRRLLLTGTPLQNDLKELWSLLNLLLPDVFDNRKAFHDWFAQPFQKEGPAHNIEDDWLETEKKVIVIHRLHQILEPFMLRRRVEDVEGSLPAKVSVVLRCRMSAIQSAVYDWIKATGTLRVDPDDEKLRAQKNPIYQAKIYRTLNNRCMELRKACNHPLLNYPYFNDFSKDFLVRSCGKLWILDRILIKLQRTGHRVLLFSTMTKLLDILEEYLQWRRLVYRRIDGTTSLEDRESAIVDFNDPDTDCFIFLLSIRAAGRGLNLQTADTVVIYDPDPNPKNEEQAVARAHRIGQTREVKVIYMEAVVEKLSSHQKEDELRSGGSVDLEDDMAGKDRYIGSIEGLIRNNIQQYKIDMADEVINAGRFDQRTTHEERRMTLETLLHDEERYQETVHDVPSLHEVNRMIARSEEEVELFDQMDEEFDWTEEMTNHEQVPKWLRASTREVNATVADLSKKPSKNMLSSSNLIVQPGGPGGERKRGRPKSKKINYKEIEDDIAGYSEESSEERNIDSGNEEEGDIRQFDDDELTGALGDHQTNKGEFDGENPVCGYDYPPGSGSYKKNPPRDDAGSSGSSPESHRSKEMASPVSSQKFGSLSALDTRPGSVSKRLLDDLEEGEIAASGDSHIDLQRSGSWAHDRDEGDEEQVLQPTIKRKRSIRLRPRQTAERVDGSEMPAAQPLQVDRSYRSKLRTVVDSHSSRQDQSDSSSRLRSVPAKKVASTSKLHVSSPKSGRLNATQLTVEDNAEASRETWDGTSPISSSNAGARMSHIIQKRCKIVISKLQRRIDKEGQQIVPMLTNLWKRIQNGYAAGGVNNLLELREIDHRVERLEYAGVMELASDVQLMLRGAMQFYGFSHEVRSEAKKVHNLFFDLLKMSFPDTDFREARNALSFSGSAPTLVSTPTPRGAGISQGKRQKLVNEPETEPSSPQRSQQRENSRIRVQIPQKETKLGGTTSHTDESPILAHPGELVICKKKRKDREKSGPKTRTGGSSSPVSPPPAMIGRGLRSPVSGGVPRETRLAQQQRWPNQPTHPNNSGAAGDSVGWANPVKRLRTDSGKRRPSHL

No constants are given. Whether binding was seen depends on the method and setting. For some of these results: Binding seen in cells or lysates may run through a third protein. Some entries that bind do so weakly or less than the wild type.

For the substance BRM-GFP (from UniProt Q6EVK6 1-2193), the binding result in experiment [1] is “binds”.

On to “BRM-N-GFP (BRM N terminal, 1-952 amino acids) (from UniProt Q6EVK6 1-952) (domain or fragment)”, for which the binding entry in experiment [2] is “binds”.

In the case of “C-terminal YFP-fused BRM (from UniProt Q6EVK6 1-2193)”, in experiment [3], the binding result is given as “binds”. Regarding “N-terminal part of BRM (amino acids 1-952), yeast two-hybrid fusion (from UniProt Q6EVK6 1-952) (domain or fragment)”, the binding result in experiment [4] is reported as “binds”.

The record behind these values is paper doi:10.1101/2023.06.23.544932.
